Source: patent US20210087270A1
Results are given in words; binding and its absence hold for the method and conditions named. Some results given as binding are weak or reduced against the parent protein; the word gives no strength.

Amino acid sequences for entries named in this document (tags omitted). A change or cut given only in a name is not applied to a line headed by its entry.
UniProt P43630: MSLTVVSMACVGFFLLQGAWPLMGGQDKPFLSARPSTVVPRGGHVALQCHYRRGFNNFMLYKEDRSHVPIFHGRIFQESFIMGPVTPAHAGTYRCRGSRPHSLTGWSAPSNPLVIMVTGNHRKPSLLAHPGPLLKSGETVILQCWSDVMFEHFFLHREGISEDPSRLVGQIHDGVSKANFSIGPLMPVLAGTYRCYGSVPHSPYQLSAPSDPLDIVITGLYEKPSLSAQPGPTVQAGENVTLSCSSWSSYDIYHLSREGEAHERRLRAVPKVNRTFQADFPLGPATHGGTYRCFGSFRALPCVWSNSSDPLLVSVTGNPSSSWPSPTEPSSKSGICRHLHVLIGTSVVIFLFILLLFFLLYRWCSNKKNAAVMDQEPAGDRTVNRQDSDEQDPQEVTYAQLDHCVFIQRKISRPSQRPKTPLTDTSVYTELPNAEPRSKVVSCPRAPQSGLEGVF

Key:
[1] = biological target: human KIR3DL2 (CD158k), wild type, at the cell surface (human) (UniProt P43630); assay: flow cytometry on HUT78 cells, 1, 24 or 48 h
[2] = biological target: human KIR3DL2 (CD158k), wild type, at the cell surface (human) (UniProt P43630); assay: flow cytometry on HUT78 cells, anti-human-Fc PE
[3] = biological target: human KIR3DL2 (CD158k), wild type, at the cell surface (human) (UniProt P43630); assay: flow cytometry on HUT78 cells after 20 h incubation
[4] = biological target: human KIR3DL2 (CD158k), wild type, at the cell surface (human) (UniProt P43630); assay: flow cytometry on HUT78 cells after 20 h incubation at 37° C.
[5] = biological target: human KIR3DL2 (CD158k), wild type, at the cell surface (human) (UniProt P43630); assay: flow cytometry on HUT78 cells, dose range 0.0005-30 µg/ml, anti-human-Fc PE
[6] = biological target: human KIR3DL2 (CD158k), wild type, at the cell surface (human) (UniProt P43630); assay: flow cytometry on live HUT78 cells, staining in RPMI10% at 37°C or 4°C for 2, 4 or 24 h, detection with anti-human-Fc PE, median of fluorescence
[7] = biological target: human KIR3DL2 (CD158k), wild type, at the cell surface (human) (UniProt P43630); assay: flow cytometry on HUT78 cells after 1, 24 or 48 h at 37°C with 2B12; bound antibody detected with goat anti-human IgG Fc-PE, free KIR3DL2 detected with 2B12-PE at 10 µg/ml
[8] = biological target: human KIR3DL2 (CD158k), wild type, at the cell surface (human) (UniProt P43630); assay: flow cytometry on HUT78 cells after 20 h at 37°C with the antibody; bound antibody detected with goat anti-human IgG Fc-PE, free KIR3DL2 detected with PE-labelled 2B12 (IPH4102-PE on the sheet) at 10 µg/ml

Measured: binding

B1: antibody 2B12 (human IgG1) (antibody, V domains shown)
VH: QIQLVQSGPELKKPGETVRISCKASGYTFTTAGMQWVQKTPGKGLKWIGWINSHSGVPKYAEDFKGRFAFSLETSASTAYLQISTLKNEDTATYFCARGGDEGVMDYWGQGTSVTVS
VL: DIVMTQSHKFMSTSLGDRVSFTCKASQDVSTAVAWYQQKPGQSPKLLIYWTSTRHTGVPDRFTGSGSGTDYTLTISSVQAEDLALYYCQQHYSTPWTFGGGTKLEIK
binds: [1] | [2] | [3] | [4] | [5] | [6] | [7] | [8]
